According to PMC9800341, “THOC5 complexes with DDX5, DDX17, and CDK12 to regulate R loop structures and transcription elongation rate”:

Legend:
[1] = biological target: T1, THOC5-FLAG (UniProt Q13769); assay: streptavidin pull-down; settings: only slight interaction; pull-downs: 4 C overnight or 37 C 2 h (Fig S5A: 4 h); recombinant protein; protein details: C-terminal FLAG (DYK); label: 5' biotin on DNA or RNA strand; DNA:RNA hybrid
T1 sequence (looked up, limits assumed): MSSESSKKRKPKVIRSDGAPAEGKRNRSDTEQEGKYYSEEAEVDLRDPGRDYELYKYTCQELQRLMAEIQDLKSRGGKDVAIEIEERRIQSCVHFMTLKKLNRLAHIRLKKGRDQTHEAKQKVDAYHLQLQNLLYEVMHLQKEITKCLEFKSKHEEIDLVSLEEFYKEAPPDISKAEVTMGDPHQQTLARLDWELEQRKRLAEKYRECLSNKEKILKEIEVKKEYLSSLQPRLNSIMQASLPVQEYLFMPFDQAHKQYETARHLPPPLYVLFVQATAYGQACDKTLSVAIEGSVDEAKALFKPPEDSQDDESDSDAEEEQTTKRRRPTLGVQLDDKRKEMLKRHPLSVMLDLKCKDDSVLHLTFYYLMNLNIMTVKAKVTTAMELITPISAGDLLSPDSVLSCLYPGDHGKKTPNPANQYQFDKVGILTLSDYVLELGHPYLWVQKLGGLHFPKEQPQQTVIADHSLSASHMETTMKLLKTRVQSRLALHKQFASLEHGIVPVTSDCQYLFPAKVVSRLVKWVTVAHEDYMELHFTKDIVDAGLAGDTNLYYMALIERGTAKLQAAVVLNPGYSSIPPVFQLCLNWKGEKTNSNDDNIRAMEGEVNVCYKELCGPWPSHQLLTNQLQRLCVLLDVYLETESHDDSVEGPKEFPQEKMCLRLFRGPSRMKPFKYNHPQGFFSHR

[2] = biological target: GST-THOC6 RK mutant (UniProt Q86W42); assay: streptavidin pull-down; settings: much weaker than WT; pull-downs: 4 C overnight or 37 C 2 h (Fig S5A: 4 h); recombinant protein; protein details: GST (pGEX-4T1), FLAG; label: 5' biotin on DNA or RNA strand; DNA:RNA hybrid
[3] = biological target: T2, GST-THOC6 WT (UniProt Q86W42); assay: GST pull-down; settings: RNase H-treated C4D or ssDNA; pull-downs: 4 C overnight or 37 C 2 h (Fig S5A: 4 h); recombinant protein; protein details: GST (pGEX-4T1), FLAG; label: 5' …; single-stranded DNA
T2 sequence (looked up, limits assumed): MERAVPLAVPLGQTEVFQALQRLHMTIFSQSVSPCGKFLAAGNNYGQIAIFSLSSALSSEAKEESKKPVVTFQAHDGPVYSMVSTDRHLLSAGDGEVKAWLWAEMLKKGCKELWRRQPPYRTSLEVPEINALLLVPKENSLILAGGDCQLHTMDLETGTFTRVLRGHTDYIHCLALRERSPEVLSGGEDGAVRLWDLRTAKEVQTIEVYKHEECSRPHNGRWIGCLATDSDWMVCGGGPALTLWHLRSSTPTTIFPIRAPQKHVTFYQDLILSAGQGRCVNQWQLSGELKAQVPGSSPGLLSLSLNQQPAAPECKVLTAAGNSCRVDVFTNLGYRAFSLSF

Row | Sequence | binding result [1] | binding result [2] | binding result [3]
1 | CGCCCTCCCGCCCCCTCGGGGCCCCGCCCCTGGGCCTCTCAGGCCCCTCCCCTGCGCTCC / GGAGCGCAGGGGAGGGGCCUGAGAGGCCCAGGGGCGGGGCCCCGAGGGGGCGGGAGGGCG [OSD (OS4D; OS-ssDNA + OS-ssRNA)] | binds more weakly |  | 
2 | CCCGGGAGGCGGAGGTTGCAGTGAACCAAGATCGCGCCATTGCACTCCAGCCTGGG / CCCAGGCUGGAGUGCAAUGGCGCGAUCUUGGUUCACUGCAACCUCCGCCUCCCGGG [C4D (C4-ssDNA + C4-ssRNA)] | binds more weakly | binds more weakly | 
3 | CCCGGGAGGCGGAGGTTGCAGTGAACCAAGATCGCGCCATTGCACTCCAGCCTGGG [C4-ssDNA (C4D after RNase H)] |  |  | binds more weakly

The exact form of at least one protein or probe is not confirmed. A weaker result is weaker than the reference pair of the same experiment. For some of these results: Tags and fusion partners may be left off the protein sequences shown.
